According to the supplement of paper PMC10398353:
Values joined by “and” are separate entries in the source; they are usually repeats but may differ in a detail not shown here. Equal entries are not always repeated. Structures can show the parent of a compound that is named as a salt. ± gives the standard deviation of the averaged measurements. The list shows a part of the results. Single values of this set are uncertain.

The molecules below were run on Salmonella enterica serovar Typhimurium ST313 D23580 (assay: normalized bacterial growth (OD600 20 h minus 0 h, interquartile-mean normalized) (fraction of plate interquartile mean); higher = more bacterial growth (less inhibition)). Conditions: LPM (pH 5.8, low phosphate, low Mg2+), concentration: 10 µM, temperature: 37 °C.

Q: How did the normalized bacterial growth turn out when `O=C(OC1CCN(CCCl)CC1)C(c1ccccc1)c1ccccc1` [4-Diphenylacetoxy-N-(2-chloroethyl)piperidine hydrochloride] was run?
A: 0.885

Q: Which normalized bacterial growth does the source give for `CC(C)C[C@H]1C(=O)N2CCC[C@H]2[C@]2(O)O[C@](NC(=O)[C@@H]3C=C4c5cccc6[nH]c(Br)c(c56)C[C@H]4N(C)C3)(C(C)C)C(=O)N12` here?
A: 0.872 and 0.654

Q: With `CC(C)C[C@H]1C(=O)N2CCC[C@H]2[C@]2(O)O[C@](NC(=O)[C@@H]3C=C4c5cccc6[nH]c(Br)c(c56)C[C@H]4N(C)C3)(C(C)C)C(=O)N12` [(+)-Bromocriptine methanesulfonate] as the molecule, how does the normalized bacterial growth read?
A: 1.02

Q: Which normalized bacterial growth does the source give for `CC(C)C[C@H]1C(=O)N2CCC[C@H]2[C@]2(O)O[C@](NC(=O)[C@@H]3C=C4c5cccc6[nH]c(Br)c(c56)C[C@H]4N(C)C3)(C(C)C)C(=O)N12` [Bromocryptine mesylate] here?
A: 0.736

Q: How did the normalized bacterial growth turn out when `c1ccc(CCCN2CCN(CCOC(c3ccccc3)c3ccccc3)CC2)cc1` was run?
A: 0.865

Q: Which normalized bacterial growth does the source give for `CN1[C@@H]2CC[C@H]1C[C@@H](OC(=O)C(CO)c1ccccc1)C2` (some centres not stated) [Atropine sulfate] here?
A: 1.08

Q: Which normalized bacterial growth does the source give for `CN1[C@@H]2CC[C@H]1C[C@@H](OC(=O)C(CO)c1ccccc1)C2` (some centres not stated) [Atropine sulfate monohydrate] here?
A: 1.08

Q: Which normalized bacterial growth does the source give for `CN1[C@@H]2CC[C@H]1C[C@@H](OC(=O)C(CO)c1ccccc1)C2` (some centres not stated) here?
A: 0.984 and 0.494

Q: How did the normalized bacterial growth turn out when `C[C@H]1CC[C@@H]2N(C1)C[C@H]1[C@@H]3C[C@H]4[C@@H](CC(=O)[C@H]5C[C@@H](O)CC[C@@]54C)[C@@H]3CC[C@H]1[C@]2(C)O` was run?
A: 1.23

Q: For `CNCC(O)c1ccc(O)cc1` (configuration not stated) [()-Synephrine], which normalized bacterial growth is on record?
A: 0.959

Q: With `C[C@@H]1CC[C@H]2[C@H](C)[C@H]3CC[C@@]4(O)[C@@H]5CC(=O)[C@H]6CC(=O)CC[C@]6(C)[C@H]5C[C@H]4[C@@H]3CN2C1` as the molecule, how does the normalized bacterial growth read?
A: 0.996

Q: With `C#CCOC(=O)C1=CCCN(C)C1` [Arecaidine propargyl ester hydrobromide] as the molecule, how does the normalized bacterial growth read?
A: 1.29

Q: For `O=C(Cc1ccc(Cl)c(Cl)c1)N1CCCCC1CN1CCCC1` (configuration not stated), which normalized bacterial growth is on record?
A: 0.715

Q: Which normalized bacterial growth does the source give for `CCC1=C[C@H]2CN3CCc4c([nH]c5ccccc45)[C@](C(=O)OC)(C2)[C@H]13` [Catharanthine] here?
A: 0.812

Q: How did the normalized bacterial growth turn out when `CN[C@@H]1[C@@H](O)[C@@H](O[C@@H]2[C@@H](O)[C@H](O[C@H]3O[C@H]([C@@H](C)O)[C@@H](O)[C@H](O)[C@H]3N)[C@@H](N)C[C@H]2N)OC[C@]1(C)O` was run?
A: 0.426

Q: For `O=c1c(O)c(-c2ccc(O)c(O)c2)oc2c(O)c(O)cc(O)c12`, which normalized bacterial growth is on record?
A: 0.981

Q: `CN1CCc2cc3c(cc2C1O)OCO3` (configuration not stated) [Hydrastinine hydrochloride] was tested. Which normalized bacterial growth did it give?
A: 0.942

Q: With `CN(CC[C@H](N)CC(=O)N[C@H]1C=C[C@H](n2ccc(N)nc2=O)O[C@@H]1C(=O)O)C(=N)N` as the molecule, how does the normalized bacterial growth read?
A: 1.25

Q: `CC(C)(N)Cc1ccccc1` was tested. Which normalized bacterial growth did it give?
A: 1.1

Q: With `CC1(C)C2CC(=O)[C@]3(C)C(CC[C@@]4(C)[C@H](c5ccoc5)OC(=O)[C@H]5O[C@]543)[C@@]2(C)C(=O)C[C@H]1O` (some centres not stated) as the molecule, how does the normalized bacterial growth read?
A: 0.818

Q: How did the normalized bacterial growth turn out when `COc1ccc(C(=O)O)cc1OC` was run?
A: 1.18

Q: `NCC(=O)c1ccccc1` was tested. Which normalized bacterial growth did it give?
A: 0.768

Q: For `CNC(=O)OCC[N+](C)(C)C` [Methylcarbamylcholine chloride], which normalized bacterial growth is on record?
A: 1.26

Q: How did the normalized bacterial growth turn out when `Nc1ncnc2c1ccn2[C@@H]1O[C@H](CO)[C@@H](O)[C@H]1O` was run?
A: 0.747

Q: Which normalized bacterial growth does the source give for `CNC(=O)Oc1ccc2c(c1)[C@]1(C)CCN(C)[C@@H]1N2C` here?
A: 0.692 and 1.07

Q: How did the normalized bacterial growth turn out when `CNC(=O)Oc1ccc2c(c1)[C@]1(C)CCN(C)[C@@H]1N2C` ["Eserine sulfate, physostigmine sulfate"] was run?
A: 0.948

Q: For `CNC(=O)Oc1ccc2c(c1)[C@]1(C)CCN(C)[C@@H]1N2C` [(-)-Physostigmine], which normalized bacterial growth is on record?
A: 0.949

Q: `CN1[C@H]2C[C@H](OC(=O)[C@H](CO)c3ccccc3)C[C@@H]1[C@@H](O)C2` was tested. Which normalized bacterial growth did it give?
A: 0.908 ± 0.02

Q: How did the normalized bacterial growth turn out when `CN(C)C(=O)Oc1cccc([N+](C)(C)C)c1` [Neostigmine bromide] was run?
A: 1.03

Q: How did the normalized bacterial growth turn out when `COc1ccc(C(CN(C)C)C2(O)CCCCC2)cc1` (configuration not stated) [Venlafaxine hydrochloride] was run?
A: 1.08

Q: `COc1ccc(C(CN(C)C)C2(O)CCCCC2)cc1` (configuration not stated) was tested. Which normalized bacterial growth did it give?
A: 0.923

Q: Which normalized bacterial growth does the source give for `CCN(CCCl)Cc1ccccc1Br` [DSP-4 hydrochloride] here?
A: 1.3

Q: With `Cc1o[nH]c(=O)c1CC(N)C(=O)O` (configuration not stated) [()-AMPA hydrobromide] as the molecule, how does the normalized bacterial growth read?
A: 1.01

Q: How did the normalized bacterial growth turn out when `C=C1[C@@H](C)[C@H]2[C@H](Cc3ccccc3)NC(=O)[C@]23[C@H](OC(C)=O)/C=C/[C@@](C)(O)C(=O)[C@@H](C)C/C=C/[C@H]3[C@@H]1O` was run?
A: 1.03

Q: For `COc1ccccc1N1CCNCC1` [1-(2-Methoxyphenyl)piperazine hydrochloride], which normalized bacterial growth is on record?
A: 1.13

Q: With `CC(=O)c1c(O)c(C)c(O)c(Cc2c(O)c3c(c(C(=O)/C=C/c4ccccc4)c2O)OC(C)(C)C=C3)c1O` as the molecule, how does the normalized bacterial growth read?
A: 0.967

Q: Which normalized bacterial growth does the source give for `CC(=O)[C@H]1CC[C@H]2[C@@H]3CC[C@H]4C[C@H](O)CC[C@]4(C)[C@H]3C(=O)C[C@]12C` ["5alpha-Pregnan-3alpha-ol-11,20-dione"] here?
A: 1.04

Q: `CC(C)=CCC[C@]1(C)C=Cc2c(O)c3c(c(CC=C(C)C)c2O1)O[C@]12C(=C[C@@H]4C[C@H]1C(C)(C)O[C@@]2(C/C=C(/C)C(N)=O)C4=O)C3=O` was tested. Which normalized bacterial growth did it give?
A: 0.971

Q: How did the normalized bacterial growth turn out when `CC1=NN=C(c2ccc(N)cc2)c2cc3c(cc2C1)OCO3` was run?
A: 1.06

Q: Which normalized bacterial growth does the source give for `O=C(O)c1cc[c]([Hg][Cl])cc1` [4-Chloromercuribenzoic acid] here?
A: 0.00794

Q: With `CC1CC(Cl)CCC1C(=O)OC(C)(C)C` (configuration not stated) as the molecule, how does the normalized bacterial growth read?
A: 0.752

Q: How did the normalized bacterial growth turn out when `O=C1C=CC(=O)C=C1` [p-Benzoquinone] was run?
A: 1.14

Q: `COc1ccc2c(c1OC)C(=O)OC2C1c2cc3c(cc2CCN1C)OCO3` (single isomer, unassigned; (+)) [(+)-Hydrastine] was tested. Which normalized bacterial growth did it give?
A: 0.93

Q: With `COc1ccc(C(c2ccc(OC)cc2)C(Cl)(Cl)Cl)cc1` as the molecule, how does the normalized bacterial growth read?
A: 0.917

Q: For `COC(=O)NC(=S)Nc1ccccc1NC(=S)NC(=O)OC`, which normalized bacterial growth is on record?
A: 1.13

Q: Which normalized bacterial growth does the source give for `O=C(O)[C@@H]1CCN1` [L-azetidine-2-carboxylic acid] here?
A: 1.02

Q: Which normalized bacterial growth does the source give for `CNC(=O)Oc1ccccc1OC(C)C` here?
A: 1.18

Q: For `COc1cc([C@@H]2c3cc4c(cc3[C@H](OC(C)=O)[C@H]3COC(=O)[C@@H]23)OCO4)cc(OC)c1OC`, which normalized bacterial growth is on record?
A: 0.937

Q: How did the normalized bacterial growth turn out when `O=C(O)Cc1cnc[nH]1` was run?
A: 1.06

Q: How did the normalized bacterial growth turn out when `O=C(O)Cc1cnc[nH]1` [Imidazole-4-acetic acid hydrochloride] was run?
A: 1.08

Q: For `c1ccc2c(c1)sc1ccccc12`, which normalized bacterial growth is on record?
A: 1.06

Q: With `O=P1(N(CCCl)CCCl)NCCCO1` (configuration not stated) as the molecule, how does the normalized bacterial growth read?
A: 1.04

Q: For `O=P1(N(CCCl)CCCl)NCCCO1` (configuration not stated) [Cyclophosphamide monohydrate], which normalized bacterial growth is on record?
A: 0.886

Q: For `CCCn1c(C)c(C(=O)c2cccc3ccccc23)c2ccccc21`, which normalized bacterial growth is on record?
A: 1.01

Q: With `CN1C(=O)CCS(=O)(=O)C1c1ccc(Cl)cc1` (configuration not stated) [Chlormezanone] as the molecule, how does the normalized bacterial growth read?
A: 1.02

Q: Which normalized bacterial growth does the source give for `CC(=O)OCC1=C(C(=O)[O-])N2C(=O)[C@@H](NC(=O)CCC[C@@H](N)C(=O)[O-])[C@H]2SC1.[Zn+2]` [Cephalosporin C zinc salt] here?
A: 1.23

Q: `CO[C@@H]1C=C2CCN(C)[C@@H]2C2c3cc4c(cc3C(=O)OC21)OCO4` (some centres not stated) [Ungerine nitrate] was tested. Which normalized bacterial growth did it give?
A: 0.958

Q: With `COc1cc2c(cc1OC)C13CC[N+]4([O-])CC5=CCOC6CC(=O)N2C1C6C5CC34` (configuration not stated) as the molecule, how does the normalized bacterial growth read?
A: 1.28

Q: How did the normalized bacterial growth turn out when `CCCCCCC(=O)CCCCCC/C=C/C[C@@H](O)[C@H](O)[C@@](N)(CO)C(=O)O` was run?
A: 0.902

Q: Which normalized bacterial growth does the source give for `CCCCCCCCCCCCCCCC[n+]1ccccc1` here?
A: 0.106

Q: For `C=CCC1(C(C)CCC)C(=O)NC(=S)NC1=O` (configuration not stated), which normalized bacterial growth is on record?
A: 1.01

Q: Which normalized bacterial growth does the source give for `c1ccc2c3c([nH]c2c1)CNCC3` here?
A: 0.625

Q: `CCCN1CCO[C@@H]2c3cc(O)ccc3OC[C@H]21` ["S(+)-PD 128,907 hydrochloride"] was tested. Which normalized bacterial growth did it give?
A: 0.8

Q: For `C[C@@H]1O[C@@H](O[C@H]2C[C@@H](O)[C@]3(CO)[C@H]4[C@H](O)C[C@]5(C)[C@@H]([C@@H]6COC(=O)C6)CC[C@]5(O)[C@@H]4CC[C@]3(O)C2)[C@H](O)[C@H](O)[C@H]1O` [Dihydroouabain], which normalized bacterial growth is on record?
A: 1.09

Q: For `c1ccc(/N=N/c2ccccc2)cc1`, which normalized bacterial growth is on record?
A: 0.938

Q: With `COC(=O)c1cc2c(cn1)[nH]c1ccccc12` [Methyl beta-carboline-3-carboxylate] as the molecule, how does the normalized bacterial growth read?
A: 0.479

Q: Which normalized bacterial growth does the source give for `O=C1C(Cl)=C(Cl)C(=O)C(Cl)=C1Cl` here?
A: 0.724

Q: How did the normalized bacterial growth turn out when `CN1C2CC(=O)CC1C(O)C2` (configuration not stated) [6-Hydroxytropinone] was run?
A: 1.17

Q: With `C[C@@H]1CC[C@]2(NC1)O[C@H]1C[C@H]3[C@@H]4CC=C5C[C@@H](O)CC[C@]5(C)[C@H]4CC[C@]3(C)[C@H]1[C@@H]2C` as the molecule, how does the normalized bacterial growth read?
A: 0.959 ± 0.017

Q: For `C[C@@H]1CC[C@]2(NC1)O[C@H]1C[C@H]3[C@@H]4CC=C5C[C@@H](O)CC[C@]5(C)[C@H]4CC[C@]3(C)[C@H]1[C@@H]2C` [Solasodine], which normalized bacterial growth is on record?
A: 1.25

Q: How did the normalized bacterial growth turn out when `Cc1ncc(C[n+]2csc(CCO)c2C)c(=O)[nH]1` was run?
A: 0.964

Q: Which normalized bacterial growth does the source give for `C[C@@H]1O[C@@H](O[C@H]2CC[C@H](O[C@H]3[C@H](O)C[C@H](c4ccc5c(c4O)C(=O)C4=C(C5=O)[C@@]5(O)C(=O)C[C@](C)(O[C@H]6CC[C@H](O[C@H]7C=CC(=O)[C@H](C)O7)[C@H](C)O6)C[C@@]5(O)C=C4)O[C@@H]3C)O[C@H]2C)C=CC1=O` here?
A: 0.442

Q: For `COc1ccc(OC)c(C(O)C(C)N)c1` (configuration not stated) [Methoxamine hydrochloride], which normalized bacterial growth is on record?
A: 1.2

Q: How did the normalized bacterial growth turn out when `CCC(=O)O[C@H]1CC[C@H]2[C@@H]3CCC4=CC(=O)CC[C@]4(C)[C@H]3CC[C@]12C` [Testosterone propionate] was run?
A: 0.706

Q: Which normalized bacterial growth does the source give for `CCC(=O)O[C@H]1CC[C@H]2[C@@H]3CCC4=CC(=O)CC[C@]4(C)[C@H]3CC[C@]12C` here?
A: 0.462

Q: For `C[N+]1(C)C2CCC1CC(OC(=O)c1c[nH]c3ccccc13)C2` (configuration not stated) [3-Tropanylindole-3-carboxylate methiodide], which normalized bacterial growth is on record?
A: 1.31

Q: For `N#C/C(=C\c1ccc(O)c(O)c1)C(N)=S` [Tyrphostin 47], which normalized bacterial growth is on record?
A: 1.15
